These are yes or no findings as the source states them, for the method shown.
Target: T1, MICAL_(MO-CH), fragment of mouse MICAL-1 containing the MO and CH domains (residues 2 to 615) (Mus musculus) (UniProt Q8VDP3)
T1 sequence: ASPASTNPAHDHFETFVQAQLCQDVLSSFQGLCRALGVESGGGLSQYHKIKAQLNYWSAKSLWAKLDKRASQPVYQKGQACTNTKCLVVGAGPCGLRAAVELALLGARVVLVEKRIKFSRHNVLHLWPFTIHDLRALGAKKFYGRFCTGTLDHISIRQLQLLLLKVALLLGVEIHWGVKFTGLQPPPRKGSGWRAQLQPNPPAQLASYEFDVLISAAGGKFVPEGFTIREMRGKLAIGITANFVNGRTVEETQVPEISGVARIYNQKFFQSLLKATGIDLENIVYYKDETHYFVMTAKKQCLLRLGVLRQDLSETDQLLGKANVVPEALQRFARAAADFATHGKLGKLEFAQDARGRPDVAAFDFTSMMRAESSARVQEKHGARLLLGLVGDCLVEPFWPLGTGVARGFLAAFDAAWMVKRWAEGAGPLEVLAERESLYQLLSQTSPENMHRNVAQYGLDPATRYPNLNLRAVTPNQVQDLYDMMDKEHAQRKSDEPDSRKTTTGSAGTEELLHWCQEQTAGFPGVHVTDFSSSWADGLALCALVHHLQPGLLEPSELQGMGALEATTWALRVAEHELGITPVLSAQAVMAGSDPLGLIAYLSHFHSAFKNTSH
Test: condition: 19 mM peptide solution, mixed 1:1 with the protein solution; crystal structure; co-crystallisation (native 1): 1 ul MICAL_(MO-CH) at 25 mg/ml mixed with 1 ul of 19.0 mM D-loop peptide, 30 min at room temperature; reservoir 100 mM HEPES pH 7.0, 20% PEG 2000 MME; 2.31 A; both purified

B1: synthetic actin D-loop peptide (residues 39 to 52 of actin) (peptide)
peptide: RHQGVMVGMGQKDS
In the case of B1, the binding is reported as “no binding”.
